Data taken from US20150374755A1, “Treated Cells and Therapeutic Uses” (NHS BLOOD & TRANSPLANT, priority 2013, published 2015).
At least one structure is not confirmed: it was looked up by name or label, or the drawing left a doubt.

Tests used:
Assay type in all cases: cell-based, human
[1] = tested on: CD4 and CD8 T lymphocytes; experiment: Suppression of stimulated T cell proliferation (CFSE) by drug pre-incubated MSC
Method: MSC derived from (FIG. 1A,E) bone marrow (BM) or (FIG. 1B-D) two independent umbilical cord (UC) preparations (WJ6060:FIG. 1B-C; WJ24-0: FIG. 1D) were incubated with Rapamycin overnight at concentrations from 0.4 to 50 ng/ml, or without drug (control (Ctl)). The MSC were washed, trypsinised, and plated in fresh medium without Rapamycin at 1, 5, and 25 k per well in 96 well plates. After 2-4 hours, human adult peripheral blood mononuclear cells (MNC) labelled with carboxyfluorescein succinimidyl ester (CFSE) were added, and the T lymphocytes therein were stimulated to proliferate with Phytohemagglutinin (PHA) (FIG. 1A-D) or anti-CD3, CD28 activation beads (FIG. 1E). Proliferation levels were determined after 3 days as described in the Methods section. For this and subsequent figures, values are presented as the averages from 3 or more independent MNC donors, with error bars representing Standard Deviation, and asterisks indicating a Student's t-Test with p<0.05 from comparison with equivalent cell numbers of Control (untreated) MSCs. The ‘+PHA’ value is the proliferation index obtained by stimulation in the absence of MSC, and is defined as 1 (see Methods).
Adult peripheral blood mononuclear cells (MNC) were obtained by centrifugation of apheresis cone contents over a Ficoll cushion. MNC were labelled with 1.25 uM carboxyfluorescein succinimidyl ester (CFSE) at room temperature for 15′ in order to monitor proliferation, and added to the MSC plates at 50k/well in the presence of 0.5 ug/ml phytohaemagglutinin (PHA), or CD3/CD28 activation beads (Miltenyi, Bisley, UK) to stimulate T cell proliferation. MNC cultured +/−PHA in the absence of MSC were used as controls for proliferation. For allostimulation assays, streptavidin-coated magnetic beads were used to produce CD4+ responder T cells (depletion of non-CD4 cells using a cocktail of biotinylated antibodies (CD8, -14, -15, -16, -19, -56, and HLA-DR)), and APC stimulators (depletion of lymphoid cells with anti-CD2, -3). The CD4+ preparations (>90% purity) were labelled with CFSE and mixed 1:1 with APC (50 k each). For accessory cell assays, PHA was added to the CD4:APC cultures at 0.5 ug/ml.
After 3-4 (PHA or bead stimulation) or 5-6 days (allostimulation) the cultures were analysed by flow cytofluorometry after staining for CD3 and CD4, and the CFSE dye-dilution profiles of CD3+CD4+ (CD4) and CD3+CD4- (CD8) lymphocytes were used to calculate proliferation indices (Lyons (2000)). To normalise the level of proliferation between experiments, the proliferation indices were calculated as: (proliferation index for condition X−proliferation index for unstimulated cells)/(proliferation index for PHA or bead stimulated control cells−proliferation index for unstimulated cells).
Cells were cultured in T25 flasks with 5 mL standard growth medium until near confluence. Drug stock solutions were diluted in DMSO such that they were added to the cultures at <10 uL. […] At times indicated in the text, the medium was removed from the cells, which were then rinsed with 5 mL calcium, magnesium-free phosphate-buffered saline (PBS). Trypsin was added in a 1 mL final volume until cells detached, then neutralised with 250 uL FCS and diluted with 5 mL PBS before centrifugation. The cell pellet was resuspended in growth medium at an initial concentration of 2.5×10^5 cells/mL, with two further 5-fold dilutions made in medium in order to distribute 1,000; 5,000; 25,000 cells/well in 100 uL aliquots to U-bottom 96 well plates (BD Falcon, Oxford, UK). Control 96 well plates were made up with 100 uL/well growth medium alone. After 2-4 hours, CFSE-labelled responder cells (MNC or CD4+ T cells) were resuspended at 5×10^5 cells/mL in growth medium and 100 uL aliquots distributed to the MSC and control plates together with the T cell stimulator as indicated in the text.

T lymphocytes = experiment: Suppression of T cell proliferation by other Rapamycin pre-treated primary cells and cell lines (HUVEC, HDF, HS27); conditions: HS27 pre-treated (HS27: 10 and 50 ng/ml, 3.5 hours), FIG. 2A-C
CD4+ T lymphocytes = experiment: CD4 T cell proliferation with Rapamycin pre-incubated antigen presenting cells (accessory cell assay and Mixed Lymphocyte Reaction); conditions: APC pre-incubated with 50 ng/ml for 1 hour, washed
CD4 T cell = experiment: Interactive effects of MSC and Rapamycin on PHA-stimulated CD4 T cell proliferation; conditions: 0.1, 0.5, 2.5 or 12.5 ng/mL in culture with 1 k, 5 k, 25 k Cord MSC, FIG. 5A

CO[C@H]1C[C@@H]2CC[C@@H](C)[C@@](O)(O2)C(=O)C(=O)N2CCCC[C@H]2C(=O)O[C@H]([C@H](C)C[C@@H]2CC[C@@H](O)[C@H](OC)C2)CC(=O)[C@H](C)/C=C(\C)[C@@H](O)[C@@H](OC)C(=O)[C@H](C)C[C@H](C)/C=C/C=C/C=C/1C [Rapamycin]
difference in suppression between doses ([1]; 100 vs 500 ng/ml for 2 hours, washout experiment, FIG. 4B): no difference was seen between the 100 and 500 ng/ml doses
potency of MSC to inhibit induced proliferation of CD4 and CD8 T lymphocytes ([1]; BM and UC-derived MSC pre-incubated overnight with 0.4 to 50 ng/ml, washed, PHA or anti-CD3, CD28 beads, vs untreated MSC): increased potency to inhibit induced proliferation of CD4 and CD8 T lymphocytes
difference in super-suppression between the two incubation periods ([1]; UC MSC WJ24-O, 0.4 or 10 ng/ml, 2 vs 24 hours incubation, FIG. 3): no significant (NS) difference
loss of suppressive effect due to the drug after culture in its absence ([1]; UC MSC WJ24-O, 100 or 500 ng/ml for 2 hours, one day drug-free culture, FIG. 4B): Approximately half
degree of suppression after primary treatment and culture in drug-free medium ([1]; UC MSC WJ24-O-2E, 2 or 50 ng/ml for 16 hours, then 2 weeks drug-free, FIG. 4A): no different to control MSC
suppression after secondary treatment (re-treatment) ([1]; re-treated with 50 ng/mL for 16 hours after two weeks drug-free, compared with ctl+R, FIG. 4A): same elevated suppression as seen with MSC which had never been treated with drug
suppression of T-cell proliferation by treated non-MSC cells (T lymphocytes): increased suppression of T-cell proliferation
T cell proliferation with pre-treated APC provided as accessory cells (CD4+ T lymphocytes; PHA, day 4, FIG. 2D): significantly reduces the resultant T cell proliferation
T cell proliferation with pre-treated APC provided as allo-antigenic stimuli (MLR) (CD4+ T lymphocytes; day 6, FIG. 2E): significantly reduces the resultant T cell proliferation
interaction of MSC and drug: observed vs predicted levels of suppression (CD4 T cell): no synergistic interactions
